From US20110136897A1, “TOLL-LIKE RECEPTOR 9 AGONISTS FOR THE TREATMENT OF ANXIETY-RELATED DISORDERS AND INFLAMMATORY DISORDERS” (YISSUM RESEARCH DEVELOPMENT COMPANY OF THE HEBREW …, priority 2008, published 2011)
The name of at least one read-out is uncertain.

Molecular target: T1, glucocorticoid receptor (GR) (Mus musculus, UniProt P06537)
T1 sequence (P06537 1-792): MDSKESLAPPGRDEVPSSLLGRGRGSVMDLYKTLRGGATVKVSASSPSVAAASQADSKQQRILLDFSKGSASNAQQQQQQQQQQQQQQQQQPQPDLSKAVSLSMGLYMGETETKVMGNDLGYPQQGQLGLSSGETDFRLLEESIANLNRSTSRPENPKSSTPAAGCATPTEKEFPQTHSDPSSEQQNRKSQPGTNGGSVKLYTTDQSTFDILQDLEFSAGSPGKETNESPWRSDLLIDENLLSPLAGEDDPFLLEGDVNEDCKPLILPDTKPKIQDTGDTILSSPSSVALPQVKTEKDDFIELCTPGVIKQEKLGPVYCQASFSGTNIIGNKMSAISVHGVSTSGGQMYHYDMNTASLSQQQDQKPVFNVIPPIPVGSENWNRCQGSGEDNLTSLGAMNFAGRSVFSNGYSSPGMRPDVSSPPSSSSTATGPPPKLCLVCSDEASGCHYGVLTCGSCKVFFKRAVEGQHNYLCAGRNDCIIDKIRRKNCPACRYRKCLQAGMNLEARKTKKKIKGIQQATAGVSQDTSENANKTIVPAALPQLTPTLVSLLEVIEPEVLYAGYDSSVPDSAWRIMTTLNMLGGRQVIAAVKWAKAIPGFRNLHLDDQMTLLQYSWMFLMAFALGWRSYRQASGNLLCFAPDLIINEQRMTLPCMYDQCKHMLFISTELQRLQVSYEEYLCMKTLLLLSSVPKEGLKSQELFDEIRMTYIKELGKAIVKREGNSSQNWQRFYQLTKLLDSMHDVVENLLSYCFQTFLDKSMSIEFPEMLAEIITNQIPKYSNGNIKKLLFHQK
Experiment: Glucocorticoid receptor whole cell [3H]dexamethasone binding assay, RAW264.7
Format: cell-based
Parameters: host or cells: RAW264.7 (mouse macrophage cell line)
Conditions: 10 μM per FIG. 10D legend
Description: Glucocorticoid receptor assay: A whole cell binding assay was used to determine GR number and affinity. 0.7×10^6 RAW264.7 cells in 2 ml medium were grown in 24-wells plates until 80% confluence was obtained. After the appropriate treatment, the medium was replaced with a saturating concentration of 50 nM [^3H]dexamethasone (85.0 Ci/mmol) (Amersham Biosciences, NJ, USA) in 5 μM unlabeled dexamethasone (Sigma, Israel). After incubation for 2 hours at 37° C., cells were washed 6 times with cold PBS and lysed in 1M NaOH. Lysates were harvested and counted in a beta-spectrometer.
Since HSP90 modulates GR activity by increasing its affinity to glucocorticoids (GCs) it was wondered whether such an effect could be obtained by activating TLR9. In order to challenge that hypothesis, RAW264.7 cells were incubated with varying concentrations of hEN101 for 24 hours and the medium was subsequently replaced with one containing different concentration of 50 nM [^3H]dexamethasone and 5 μM unlabeled dexamethasone. After a 2 hour incubation, radioactivity was measured in a beta-spectrometer.

For 5′-CTGCCACGTTCTCCTGCA*C*C*-3′ [hEN101], the “DEX (GR) Kd, Scatchard plot analysis” value was “not Kd”.
